Assay results published in paper PMC7067828.
For part of these data: The comparison behind a weaker result is the experiment's own reference, which may not be listed here. For part of these data: The exact form of at least one protein or probe is not confirmed. For part of these data: At least one verdict was read from the data and is not stated in words by the source.

Chains of the proteins cited; added tags and fusions are not shown. Residues count along the entry.
UniProt Q96PZ2, 176-282: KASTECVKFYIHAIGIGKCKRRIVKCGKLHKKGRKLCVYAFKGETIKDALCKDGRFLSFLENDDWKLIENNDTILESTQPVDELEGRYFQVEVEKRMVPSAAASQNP
UniProt Q96PZ2, 176-282 F231A: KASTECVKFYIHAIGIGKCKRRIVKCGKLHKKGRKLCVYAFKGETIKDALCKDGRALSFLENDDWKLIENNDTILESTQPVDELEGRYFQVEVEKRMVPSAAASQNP
UniProt Q96PZ2, whole entry: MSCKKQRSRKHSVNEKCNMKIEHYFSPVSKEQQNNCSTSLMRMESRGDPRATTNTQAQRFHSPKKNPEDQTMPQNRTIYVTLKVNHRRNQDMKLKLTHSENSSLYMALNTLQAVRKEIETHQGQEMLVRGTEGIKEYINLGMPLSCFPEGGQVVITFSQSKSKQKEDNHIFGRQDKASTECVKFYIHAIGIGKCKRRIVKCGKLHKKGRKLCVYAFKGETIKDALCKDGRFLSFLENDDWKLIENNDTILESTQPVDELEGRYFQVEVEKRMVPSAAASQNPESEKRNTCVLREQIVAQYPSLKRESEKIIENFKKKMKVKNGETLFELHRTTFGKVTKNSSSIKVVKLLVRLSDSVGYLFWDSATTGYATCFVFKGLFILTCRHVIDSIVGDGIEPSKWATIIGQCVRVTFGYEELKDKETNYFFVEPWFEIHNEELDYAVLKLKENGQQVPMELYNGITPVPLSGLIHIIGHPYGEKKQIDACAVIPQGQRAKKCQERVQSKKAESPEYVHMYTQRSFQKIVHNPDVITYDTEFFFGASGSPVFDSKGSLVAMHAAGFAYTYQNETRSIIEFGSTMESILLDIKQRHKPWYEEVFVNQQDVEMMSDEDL
UniProt Q96PZ2, 1-282: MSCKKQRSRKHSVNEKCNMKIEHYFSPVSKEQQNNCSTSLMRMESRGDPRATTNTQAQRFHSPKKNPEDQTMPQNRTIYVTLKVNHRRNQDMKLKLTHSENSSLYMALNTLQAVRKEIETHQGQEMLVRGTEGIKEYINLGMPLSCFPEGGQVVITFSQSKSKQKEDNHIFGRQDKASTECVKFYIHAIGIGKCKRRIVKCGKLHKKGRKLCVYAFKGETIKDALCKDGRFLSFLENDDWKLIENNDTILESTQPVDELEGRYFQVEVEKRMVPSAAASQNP
UniProt Q96PZ2, 1-282 F231A: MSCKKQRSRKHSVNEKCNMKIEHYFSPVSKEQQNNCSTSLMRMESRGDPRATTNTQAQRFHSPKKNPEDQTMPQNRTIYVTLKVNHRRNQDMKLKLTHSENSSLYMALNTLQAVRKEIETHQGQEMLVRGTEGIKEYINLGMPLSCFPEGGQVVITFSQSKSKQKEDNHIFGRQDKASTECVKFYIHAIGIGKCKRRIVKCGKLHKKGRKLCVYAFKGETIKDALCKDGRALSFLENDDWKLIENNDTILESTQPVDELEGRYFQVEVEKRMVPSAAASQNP
UniProt Q96PZ2, 1-254: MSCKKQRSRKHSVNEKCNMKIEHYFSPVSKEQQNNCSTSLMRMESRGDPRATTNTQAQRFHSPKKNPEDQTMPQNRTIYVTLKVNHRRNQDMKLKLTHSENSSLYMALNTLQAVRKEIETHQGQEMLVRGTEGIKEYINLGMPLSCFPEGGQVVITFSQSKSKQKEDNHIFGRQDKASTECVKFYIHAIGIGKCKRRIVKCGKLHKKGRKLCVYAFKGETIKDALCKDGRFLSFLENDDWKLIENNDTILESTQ

Assays:
[1] = target: MBP-FAM111A 176-282 (human) (UniProt Q96PZ2); assay: fluorescence polarization; details: FP: 10 mM HEPES-NaOH pH 7.5, 150 mM NaCl, 10 nM DNA; recombinant protein; residues 176-282; protein details: N-terminal MBP; label: 5' 6-FAM; single-stranded DNA
[2] = target: MBP-FAM111A 176-282 F231A (human) (UniProt Q96PZ2); assay: fluorescence polarization; details: FP: 10 mM HEPES-NaOH pH 7.5, 150 mM NaCl, 10 nM DNA; recombinant protein; residues 176-282; protein details: N-terminal MBP; label: 5' 6-FAM; single-stranded DNA
[3] = target: GST-FAM111A-strep (human) (UniProt Q96PZ2); assay: EMSA; details: 5 mM Mg2+; EMSA: 25 mM Tris-HCl pH 7.5, 5 mM MgCl2, 10% glycerol, 20 ng/ul BSA, 1 mM DTT, 0.7 pmol DNA in 10 ul, on ice 1 h; recombinant protein; residues …; protein details: N-terminal GST, C-terminal tandem Strep; label: 5' IRDye700 on strand 1
[4] = target: MBP-FAM111A 1-282 (human) (UniProt Q96PZ2); assay: EMSA; details: 5 mM Mg2+; EMSA: 25 mM Tris-HCl pH 7.5, 5 mM MgCl2, 10% glycerol, 20 ng/ul BSA, 1 mM DTT, 0.7 pmol DNA in 10 ul, on ice 1 h; recombinant protein; residues …; protein details: N-terminal MBP; label: 5' IRDye700 on strand 1
[5] = target: MBP-FAM111A 176-282 (human) (UniProt Q96PZ2); assay: EMSA; details: 5 mM Mg2+; EMSA: 25 mM Tris-HCl pH 7.5, 5 mM MgCl2, 10% glycerol, 20 ng/ul BSA, 1 mM DTT, 0.7 pmol DNA in 10 ul, on ice 1 h; recombinant protein; residues 176-282; protein details: N-terminal MBP; label: 5' IRDye700 on strand 1
[6] = target: MBP-FAM111A 1-282 F231A (human) (UniProt Q96PZ2); assay: EMSA; details: 5 mM Mg2+, EMSA: 25 mM Tris-HCl pH 7.5, 5 mM MgCl2, 10% glycerol, 20 ng/ul BSA, 1 mM DTT, 0.7 pmol DNA in 10 ul, on ice 1 h, recombinant protein, residues …, protein details: N-terminal MBP
[7] = target: MBP-FAM111A 176-282 F231A (human) (UniProt Q96PZ2); assay: EMSA; details: 5 mM Mg2+, EMSA: 25 mM Tris-HCl pH 7.5, 5 mM MgCl2, 10% glycerol, 20 ng/ul BSA, 1 mM DTT, 0.7 pmol DNA in 10 ul, on ice 1 h, recombinant protein, residues 176-282, protein details: N-terminal MBP
[8] = target: MBP-FAM111A 1-254 (human) (UniProt Q96PZ2); assay: EMSA; details: 5 mM Mg2+; EMSA: 25 mM Tris-HCl pH 7.5, 5 mM MgCl2, 10% glycerol, 20 ng/ul BSA, 1 mM DTT, 0.7 pmol DNA in 10 ul, on ice 1 h; recombinant protein; residues …; protein details: N-terminal MBP; label: 5' IRDye700; single-stranded DNA
[9] = target: MBP-FAM111A 1-282 del176-208 (human) (UniProt Q96PZ2); assay: EMSA; details: 5 mM Mg2+; EMSA: 25 mM Tris-HCl pH 7.5, 5 mM MgCl2, 10% glycerol, 20 ng/ul BSA, 1 mM DTT, 0.7 pmol DNA in 10 ul, on ice 1 h; recombinant protein; residues …; protein details: N-terminal MBP; label: 5' IRDye700; single-stranded DNA
[10] = target: MBP-FAM111A 1-282 del209-254 (human) (UniProt Q96PZ2); assay: EMSA; details: 5 mM Mg2+; EMSA: 25 mM Tris-HCl pH 7.5, 5 mM MgCl2, 10% glycerol, 20 ng/ul BSA, 1 mM DTT, 0.7 pmol DNA in 10 ul, on ice 1 h; recombinant protein; residues …; protein details: N-terminal MBP; label: 5' IRDye700; single-stranded DNA
[11] = label: 5' IRDye700, single-stranded DNA

Sequence: CGACGATGCTCCGGTACTCCAGTGTAGGCAT [6-FAM-O1676 (31 nt)]
- binding result [1]: binds
- binding result [2]: binds more weakly

Sequence: GTTTTCCCAGTCACGACGATGCTCCGGTACTCCAGTGTAGGCATATTACGAATTCTTGAGGCAGGCATGGTAGCT (double strand) [dsDNA O3063/O4786]
- binding result [3]: binds more weakly

Sequence: GTTTTCCCAGTCACGACGATGCTCCGGTACTCCAGTGTAGGCATATTACGAATTCTTGAGGCAGGCATGGTAGCT / AGCTACCATGCCTGCCTCAAGAATTCGTAATATGCCTACACTGGACCGTACTTCGCCTAGTAGACTGCCTTCCCG [Y fork O3063/O4787]
- binding result [4]: binds
- binding result [5]: binds
- binding result ([6]; label: 5' IRDye700 on strand 1): binds more weakly
- binding result ([7]; label: 5' IRDye700 on strand 1): binds more weakly

Sequence: GTTTTCCCAGTCACGACGATGCTCCGGTACTCCAGTGTAGGCATATTACGAATTCTTGAGGCAGGCATGGTAGCT [ssDNA O3063 (75 nt)]
- binding result [8]: binds more weakly
- binding result [9]: binds more weakly
- binding result [10]: binds more weakly
- binding result [6, 11]: binds more weakly
- binding result [7, 11]: binds more weakly
